From publication PMC11067147 come the findings set out here.

Sequences of proteins named here, by UniProt entry; tags and fusion partners are left off.
UniProt Q7Z406: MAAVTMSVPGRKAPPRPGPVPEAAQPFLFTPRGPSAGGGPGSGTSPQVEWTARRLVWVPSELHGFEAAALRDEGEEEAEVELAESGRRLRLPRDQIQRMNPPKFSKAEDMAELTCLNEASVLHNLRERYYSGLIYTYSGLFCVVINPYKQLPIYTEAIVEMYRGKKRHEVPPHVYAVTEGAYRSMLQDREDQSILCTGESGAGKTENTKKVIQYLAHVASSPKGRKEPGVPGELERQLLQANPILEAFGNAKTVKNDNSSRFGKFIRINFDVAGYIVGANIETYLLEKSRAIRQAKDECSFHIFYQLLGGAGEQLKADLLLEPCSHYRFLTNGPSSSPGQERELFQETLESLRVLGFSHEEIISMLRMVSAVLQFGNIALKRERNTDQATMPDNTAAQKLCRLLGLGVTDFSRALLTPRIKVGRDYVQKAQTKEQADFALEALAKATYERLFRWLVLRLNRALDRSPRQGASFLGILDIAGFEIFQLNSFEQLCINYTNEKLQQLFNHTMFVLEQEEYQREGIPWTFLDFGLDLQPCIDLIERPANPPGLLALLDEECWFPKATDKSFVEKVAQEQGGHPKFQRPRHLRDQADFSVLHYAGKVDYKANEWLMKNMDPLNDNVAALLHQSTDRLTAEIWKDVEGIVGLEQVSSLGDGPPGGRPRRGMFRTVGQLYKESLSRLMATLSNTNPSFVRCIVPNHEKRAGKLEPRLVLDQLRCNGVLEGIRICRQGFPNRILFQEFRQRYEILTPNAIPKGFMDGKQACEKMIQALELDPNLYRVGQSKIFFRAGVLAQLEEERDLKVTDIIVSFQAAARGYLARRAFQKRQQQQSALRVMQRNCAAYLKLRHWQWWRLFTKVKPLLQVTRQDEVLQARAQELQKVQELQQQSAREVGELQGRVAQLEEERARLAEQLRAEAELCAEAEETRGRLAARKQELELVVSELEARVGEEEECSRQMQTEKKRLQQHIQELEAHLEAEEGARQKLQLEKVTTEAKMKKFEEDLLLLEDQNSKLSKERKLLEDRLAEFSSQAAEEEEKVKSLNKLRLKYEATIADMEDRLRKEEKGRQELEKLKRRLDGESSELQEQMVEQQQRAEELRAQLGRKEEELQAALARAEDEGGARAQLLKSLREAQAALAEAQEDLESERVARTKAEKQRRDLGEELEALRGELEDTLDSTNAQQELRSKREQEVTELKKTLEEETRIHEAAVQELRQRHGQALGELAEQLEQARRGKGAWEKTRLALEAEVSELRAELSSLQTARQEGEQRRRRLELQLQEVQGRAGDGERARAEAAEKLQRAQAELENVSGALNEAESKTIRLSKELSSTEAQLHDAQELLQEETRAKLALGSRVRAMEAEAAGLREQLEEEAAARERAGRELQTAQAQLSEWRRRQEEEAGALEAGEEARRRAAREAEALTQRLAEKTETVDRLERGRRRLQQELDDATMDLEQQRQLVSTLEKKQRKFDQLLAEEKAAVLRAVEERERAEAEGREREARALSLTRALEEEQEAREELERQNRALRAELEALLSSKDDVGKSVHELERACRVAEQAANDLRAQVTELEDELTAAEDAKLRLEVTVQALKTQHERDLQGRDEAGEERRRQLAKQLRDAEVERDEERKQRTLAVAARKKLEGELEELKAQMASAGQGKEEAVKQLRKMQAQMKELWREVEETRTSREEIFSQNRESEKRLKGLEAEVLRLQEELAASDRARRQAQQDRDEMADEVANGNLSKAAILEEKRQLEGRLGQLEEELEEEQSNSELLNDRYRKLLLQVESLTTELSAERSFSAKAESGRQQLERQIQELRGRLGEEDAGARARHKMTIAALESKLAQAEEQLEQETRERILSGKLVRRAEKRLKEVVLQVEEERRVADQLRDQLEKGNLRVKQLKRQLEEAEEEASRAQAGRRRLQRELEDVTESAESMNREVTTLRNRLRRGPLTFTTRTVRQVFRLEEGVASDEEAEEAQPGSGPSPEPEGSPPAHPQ
UniProt P35579: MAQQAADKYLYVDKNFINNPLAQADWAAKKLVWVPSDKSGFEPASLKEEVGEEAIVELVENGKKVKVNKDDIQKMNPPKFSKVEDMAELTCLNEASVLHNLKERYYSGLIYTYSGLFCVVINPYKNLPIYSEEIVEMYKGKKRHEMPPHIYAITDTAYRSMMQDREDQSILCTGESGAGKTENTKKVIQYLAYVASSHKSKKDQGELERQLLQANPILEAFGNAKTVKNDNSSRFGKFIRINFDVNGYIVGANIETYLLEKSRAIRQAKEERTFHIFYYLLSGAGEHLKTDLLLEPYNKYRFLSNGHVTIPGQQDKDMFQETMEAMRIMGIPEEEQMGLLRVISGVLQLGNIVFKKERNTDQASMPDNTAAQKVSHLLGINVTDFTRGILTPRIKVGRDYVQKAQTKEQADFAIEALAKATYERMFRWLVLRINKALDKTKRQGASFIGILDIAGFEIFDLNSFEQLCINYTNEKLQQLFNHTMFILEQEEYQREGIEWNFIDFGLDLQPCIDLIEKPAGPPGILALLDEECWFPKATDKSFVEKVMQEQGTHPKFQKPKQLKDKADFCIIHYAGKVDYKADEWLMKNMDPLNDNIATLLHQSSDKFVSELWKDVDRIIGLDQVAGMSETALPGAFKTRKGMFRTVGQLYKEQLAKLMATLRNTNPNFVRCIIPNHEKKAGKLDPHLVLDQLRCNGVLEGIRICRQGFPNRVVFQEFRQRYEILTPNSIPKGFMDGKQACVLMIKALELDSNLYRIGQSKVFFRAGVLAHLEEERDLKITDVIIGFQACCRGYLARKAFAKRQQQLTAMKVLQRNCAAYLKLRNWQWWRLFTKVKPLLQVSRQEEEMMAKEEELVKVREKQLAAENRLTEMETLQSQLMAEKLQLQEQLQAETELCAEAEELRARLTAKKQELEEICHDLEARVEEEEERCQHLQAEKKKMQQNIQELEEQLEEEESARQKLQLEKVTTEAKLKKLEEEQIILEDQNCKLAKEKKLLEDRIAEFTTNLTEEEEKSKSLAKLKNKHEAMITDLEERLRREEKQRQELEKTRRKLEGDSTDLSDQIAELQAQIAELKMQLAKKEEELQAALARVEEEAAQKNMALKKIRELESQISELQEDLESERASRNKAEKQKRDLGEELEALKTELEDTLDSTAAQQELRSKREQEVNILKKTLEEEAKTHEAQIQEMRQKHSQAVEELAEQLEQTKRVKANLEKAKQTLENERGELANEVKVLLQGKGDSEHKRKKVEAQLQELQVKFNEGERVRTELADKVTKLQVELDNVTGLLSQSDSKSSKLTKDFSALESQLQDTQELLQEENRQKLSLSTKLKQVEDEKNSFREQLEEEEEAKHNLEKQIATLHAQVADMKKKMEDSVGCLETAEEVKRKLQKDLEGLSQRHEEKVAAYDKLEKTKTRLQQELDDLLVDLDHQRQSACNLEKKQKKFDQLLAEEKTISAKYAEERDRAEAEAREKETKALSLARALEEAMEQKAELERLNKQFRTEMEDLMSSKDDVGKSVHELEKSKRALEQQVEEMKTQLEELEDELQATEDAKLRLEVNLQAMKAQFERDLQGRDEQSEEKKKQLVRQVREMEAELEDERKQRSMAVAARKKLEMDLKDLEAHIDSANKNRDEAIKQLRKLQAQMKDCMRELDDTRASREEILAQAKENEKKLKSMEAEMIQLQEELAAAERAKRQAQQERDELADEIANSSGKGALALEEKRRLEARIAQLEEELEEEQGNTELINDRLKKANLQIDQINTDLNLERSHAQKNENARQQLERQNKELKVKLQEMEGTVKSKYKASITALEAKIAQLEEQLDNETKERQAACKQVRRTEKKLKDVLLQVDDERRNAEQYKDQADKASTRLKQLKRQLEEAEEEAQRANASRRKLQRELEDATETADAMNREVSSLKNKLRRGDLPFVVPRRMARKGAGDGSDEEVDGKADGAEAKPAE

These are yes or no findings as the source states them, for the method shown. In cells and extracts the contact can be indirect. Some results given as binding are weak or reduced against the parent protein; the word gives no strength.

In the experiment the target is MYH14 (human (endogenous in Ishikawa and KLE)) (UniProt Q7Z406). Put plainly: co-IP; Pierce Co-IP kit, antibody covalently coupled to amine-reactive resin; lysates of Ishikawa and KLE cells, overnight at 4 °C; western blot; also cells treated with sesamolin for 48 h. For orientation: Immunoblotting shows a protein as a band on a membrane.

MYH9 (from UniProt P35579 1-1960): the binding result is given as “binds”.
